{
  "source": "patent US10732173B2",
  "about": "“Use of aldehyde dehydrogenase as biomarker for beta-cell dysfunction and loss” (THE TRUSTEES OF COLUMBIA UNIVERSITY IN THE CITY OF NEW YORK, priority 2015, dated 2020)",
  "system": "ALDH+ cells",
  "test": "RNA sequencing of flow-sorted ALDH+ vs ALDH- islet cells (wild-type and Foxo knockout)",
  "parameters": "species or system mouse",
  "key": {"[1]": {"conditions": "wild-type ALDH− vs. ALDH+ cells (ALDH+/ALDH−)"}},
  "data": [
    {"substance": "Tbca", "values": [
      {"measurement": "baseMean ALDH+", "setting": "RNA sequencing, wild-type ALDH+ cells", "result": 462.7},
      {"measurement": "baseMean all", "setting": "RNA sequencing, wild-type ALDH− and ALDH+ cells, mean of all samples", "result": 825.4},
      {"measurement": "baseMean ALDH−", "setting": "RNA sequencing, wild-type ALDH− cells", "result": 1007},
      {"measurement": "Fold-Change", "setting": "[1]", "result": 0.4596},
      {"measurement": "log2 Fold-Change", "setting": "[1]", "result": "−1.122"}
    ]}
  ]
}
